Reference: patent publication US10686136B2, “Hole transporting material, OLED display panel and electronic device comprising the same” (SHANGHAI TIANMA AM-OLED CO., LTD., priority 2016, dated 2020)

What was measured:
[1] = Crosstalk test of OLED display panel (LGreen/LBlue); details: intensity ratio of green light of adjacent pixels when blue light intensity was 0.1 Cd/m^2, dark room
Protocol: Performance tests of the OLED display panels in the Examples and Comparison Examples were carried out.
(2) Crosstalk test method: the program being transferred to the B screen in a dark room, testing the intensity ratio of the green light of adjacent pixels when the blue light intensity was 0.1 Cd/m^2, LGreen/LBlue;

Mask cleaning effect = details: ultrasonic frequency 40 kHz, 25° C., MASK of the red light of hole transporting layer completely cleaned
Protocol: (3) Mask cleaning effect:
the time required for all the materials on the MASK of the red light of the hole transporting layer 203 to be completely cleaned at a fixed ultrasonic frequency of 40 kHz and at a temperature of 25° C.

Structure (SMILES) | LGreen/LBlue [1] [%] | Mask cleaning time (Mask cleaning effect) [s]
Cc1ccc(-c2ccc(N(c3ccc(-c4ccccc4)cc3)c3ccc(-c4ccc(N(c5ccc(-c6ccccc6)cc5)c5ccc(-c6ccc(C)cc6)cc5)cc4)cc3)cc2)cc1 [Com. Example 2] | 1.8 | 60
Cc1ccc(-c2ccc(N(c3ccc(-c4ccccc4)cc3)c3ccc(-c4ccc(N(c5ccc(-c6ccccc6)cc5)c5ccc(-c6ccc(C)cc6)cc5)c5c4CCCC5)cc3)cc2)cc1 [Example 1] | 1.8 | 30
